The results are deposited in PubChem (AID1920064; Tox21, 2024).

By UniProt entry, the sequences of proteins in these tests, tags left out.
UniProt Q969F8, whole entry, target on record: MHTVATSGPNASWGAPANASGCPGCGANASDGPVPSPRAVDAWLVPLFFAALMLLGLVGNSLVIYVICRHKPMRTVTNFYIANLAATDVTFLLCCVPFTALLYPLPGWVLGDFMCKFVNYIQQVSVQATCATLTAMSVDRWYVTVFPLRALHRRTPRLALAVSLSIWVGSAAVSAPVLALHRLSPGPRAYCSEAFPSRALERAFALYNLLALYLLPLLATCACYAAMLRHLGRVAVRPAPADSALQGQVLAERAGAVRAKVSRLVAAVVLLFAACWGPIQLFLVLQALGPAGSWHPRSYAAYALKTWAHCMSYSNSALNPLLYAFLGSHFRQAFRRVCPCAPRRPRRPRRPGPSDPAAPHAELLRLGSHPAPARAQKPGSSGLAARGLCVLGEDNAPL

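HEK293 cells engineered to carry human KISS1R, tested for agonist-driven rises in intracellular calcium measured by fluorescence; read time not stated here.
Each compound was run as a concentration series reaching mostly 76.8 µM.
The value is the fitted potency (AC50); a lower number means a more potent activator.
Calls come from the fitted dose curve, and inconclusive marks weak, partial, poorly fitted or mixed activation curves.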

Values are in µM.
Every entry below has the call inconclusive.
These entries are mostly ones the record files as inconclusive; other results of the assay are not listed here.
A potency from a partial, single-point or poor curve is only a rough figure.

{"smiles": "Cc1c(C)n(Cc2ccccc2)c2ccc(C(=O)OCCN(C)C)cc12", "fitted potency (µM)": "23.91", "curve": "activator, partial curve, poor fit"}
{"smiles": "CCCCOCCOCCOCc1cc2c(cc1CCC)OCO2", "fitted potency (µM)": "62.39", "curve": "activator, partial curve, poor fit"}
{"smiles": "O[C@@H](c1cc(C(F)(F)F)nc2c(C(F)(F)F)cccc12)[C@H]1CCCCN1", "fitted potency (µM)": "23.91", "curve": "activator"}
{"smiles": "NC(=O)CN1CCCC1=O", "fitted potency (µM)": "26.83", "curve": "activator, single point"}
{"smiles": "CCCCCCCCCCCCCCCC[N+](C)(C)C", "fitted potency (µM)": "54.94", "curve": "activator, single point"}
{"smiles": "Clc1ccccc1C(c1ccccc1)(c1ccccc1)n1ccnc1", "fitted potency (µM)": "0.2683", "curve": "activator, partial curve, poor fit"}
{"smiles": "CCCCCCCCCCCCCCOS(=O)(=O)O", "fitted potency (µM)": "15.48", "curve": "activator, full curve, poor fit"}
{"smiles": "CCCCCCCCCCCCCCCC[N+](C)(C)CC", "fitted potency (µM)": "31", "curve": "activator, partial curve, poor fit"}
{"smiles": "CN1CCCN(C(c2ccccc2)c2ccc(Cl)cc2)CC1", "stereo": "stereo not drawn", "fitted potency (µM)": "26.83", "curve": "activator, partial curve, poor fit"}
{"smiles": "CC(C)(C)CC(C)(C)c1ccc(O)c(-n2nc3ccccc3n2)c1", "fitted potency (µM)": "22.18", "curve": "activator, partial curve, poor fit"}
{"smiles": "CC[C@@H]([C@H](C)O)n1ncn(-c2ccc(N3CCN(c4ccc(OC[C@@H]5CO[C@@](Cn6cncn6)(c6ccc(F)cc6F)C5)cc4)CC3)cc2)c1=O", "fitted potency (µM)": "30.11", "curve": "activator, partial curve, poor fit"}
{"smiles": "CC(=O)OC(C)C[N+](C)(C)C", "stereo": "stereo not drawn", "fitted potency (µM)": "6.007", "curve": "activator, full curve, poor fit"}
{"smiles": "O=C(O)C(F)(F)C(F)(F)C(F)(F)C(F)(F)C(F)(F)F", "fitted potency (µM)": "21.87", "curve": "activator, partial curve"}
{"smiles": "C1=CC2C3C=CC(C3)C2C1", "stereo": "stereo not drawn", "fitted potency (µM)": "53.95", "curve": "activator, single point"}
{"smiles": "CCCC1O[C@@H]2C[C@H]3[C@@H]4CCC5=CC(=O)C=C[C@]5(C)[C@H]4[C@@H](O)C[C@]3(C)[C@]2(C(=O)CO)O1", "stereo": "stereo partly drawn", "fitted potency (µM)": "49.01", "curve": "activator, partial curve, poor fit"}
{"smiles": "CC(C)c1ccc2c(c1)CC[C@H]1[C@](C)(CN)CCC[C@]21C", "fitted potency (µM)": "48.97", "curve": "activator, single point"}
{"smiles": "[Cl][Bi]([Cl])([c]1ccccc1)([c]1ccccc1)[c]1ccccc1", "fitted potency (µM)": "54.61", "curve": "activator, single point"}
{"smiles": "CC(C)(C)C(O)C(Oc1ccc(Cl)cc1)n1cncn1", "stereo": "stereo not drawn", "fitted potency (µM)": "24.54", "curve": "activator, partial curve, poor fit"}
{"smiles": "Nc1ccc(Cl)cc1N", "fitted potency (µM)": "38.9", "curve": "activator, partial curve, poor fit"}
{"smiles": "Cc1ccc(S(=O)(=O)C(I)I)cc1", "fitted potency (µM)": "27.54", "curve": "activator, partial curve, poor fit"}
{"smiles": "NCCNCCN", "fitted potency (µM)": "61.86", "curve": "activator, partial curve, poor fit"}
{"smiles": "Nc1ccccc1N", "fitted potency (µM)": "56.23", "curve": "activator, single point"}